Experiment: Analytical recovery of pregabalin spiked into human urine

Compound: CC(C)C[C@H](CN)CC(=O)O [Pregabalin, (S)-3-(aminomethyl)-5-methylhexanoic acid]
- Mean (spiked level 200 ng/mL in human urine): 197.9 ng/mL
- Mean (spiked level 400 ng/mL in human urine): 378.3 ng/mL
- Mean (spiked level 800 ng/mL in human urine): 778.6 ng/mL
- Mean (spiked level 1500 ng/mL in human urine): 1361.2 ng/mL

Source: patent US12656356B2, “Pregabalin immunoassays” (ARK Diagnostics, Inc., priority 2015, dated 2026)
